Experimental data taken from PubChem BioAssay AID1362 (SRMLSC, 2008).
Only a part is listed here, and it is no random draw. Activity calls are given as the source filed them. Cut-off read from the data, not from the text of the source: active = inhibition above about 58%; inactive = the rest, inconclusive results apart; tested in S. cerevisiae.

Test: growth inhibition of WT strain, primary screen, mitochondrial fusion inhibitor project, WT and mutant strains, chemical genetic (AID 1362)
Conditions: mitochondrial fusion phenotypic screen, at 10 µM

SMILES: CN[C@H]1C[C@H]2O[C@@](C)([C@H]1OC)n1c3ccccc3c3c4c(c5c6ccccc6n2c5c31)C(=O)NC4
- inhibition (WT strain, growth inhibition, stronger effect = higher value): active: 72%
- inhibition (mutant strain inhibition): 69.3%
